The entries are a selection whose mix differs from that of the whole data set. At the low end of the ranking, values are background and their order means little.
Legend:
Assay in all cases: DAPPL (digital affinity profiling via proximity ligation, sequencing)
Settings in all cases: 10 mM Tris-HCl pH 7.5, 50 mM NaCl, 1 mM DTT, 4% glycerol, room temperature, 30 min; GST-TFs on glutathione beads, 16-mer random dsDNA library, 0.1% …; high values mean tight binding; double strand, one strand shown; scale: fold enrichment (6-mer frequency, TF over GST control)
FLI1 = target: T1, FLI1 (UniProt Q01543)
T1 sequence: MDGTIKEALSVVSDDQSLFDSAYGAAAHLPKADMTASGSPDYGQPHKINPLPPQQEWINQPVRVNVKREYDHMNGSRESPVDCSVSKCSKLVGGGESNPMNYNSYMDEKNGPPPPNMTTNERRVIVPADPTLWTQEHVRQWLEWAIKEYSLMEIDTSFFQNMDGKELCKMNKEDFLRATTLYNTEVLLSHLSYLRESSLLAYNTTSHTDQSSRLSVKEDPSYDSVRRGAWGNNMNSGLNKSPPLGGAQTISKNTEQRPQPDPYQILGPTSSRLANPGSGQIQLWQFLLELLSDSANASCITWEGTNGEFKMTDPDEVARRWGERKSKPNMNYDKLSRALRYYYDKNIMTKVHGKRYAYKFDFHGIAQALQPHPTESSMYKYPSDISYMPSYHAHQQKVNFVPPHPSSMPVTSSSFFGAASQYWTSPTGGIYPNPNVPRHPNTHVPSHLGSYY

The chains behind the UniProt entries cited, without tags or fusion partners. Where a name states a change or a piece, a line headed by the entry shows the natural chain unless it says otherwise.
UniProt Q01892: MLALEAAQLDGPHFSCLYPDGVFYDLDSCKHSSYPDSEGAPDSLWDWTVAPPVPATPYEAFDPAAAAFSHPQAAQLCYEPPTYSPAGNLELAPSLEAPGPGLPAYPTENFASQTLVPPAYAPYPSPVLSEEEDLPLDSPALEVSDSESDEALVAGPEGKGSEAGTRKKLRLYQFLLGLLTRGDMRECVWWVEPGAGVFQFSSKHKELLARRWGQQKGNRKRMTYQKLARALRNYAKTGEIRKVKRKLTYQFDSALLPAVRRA
UniProt Q99607: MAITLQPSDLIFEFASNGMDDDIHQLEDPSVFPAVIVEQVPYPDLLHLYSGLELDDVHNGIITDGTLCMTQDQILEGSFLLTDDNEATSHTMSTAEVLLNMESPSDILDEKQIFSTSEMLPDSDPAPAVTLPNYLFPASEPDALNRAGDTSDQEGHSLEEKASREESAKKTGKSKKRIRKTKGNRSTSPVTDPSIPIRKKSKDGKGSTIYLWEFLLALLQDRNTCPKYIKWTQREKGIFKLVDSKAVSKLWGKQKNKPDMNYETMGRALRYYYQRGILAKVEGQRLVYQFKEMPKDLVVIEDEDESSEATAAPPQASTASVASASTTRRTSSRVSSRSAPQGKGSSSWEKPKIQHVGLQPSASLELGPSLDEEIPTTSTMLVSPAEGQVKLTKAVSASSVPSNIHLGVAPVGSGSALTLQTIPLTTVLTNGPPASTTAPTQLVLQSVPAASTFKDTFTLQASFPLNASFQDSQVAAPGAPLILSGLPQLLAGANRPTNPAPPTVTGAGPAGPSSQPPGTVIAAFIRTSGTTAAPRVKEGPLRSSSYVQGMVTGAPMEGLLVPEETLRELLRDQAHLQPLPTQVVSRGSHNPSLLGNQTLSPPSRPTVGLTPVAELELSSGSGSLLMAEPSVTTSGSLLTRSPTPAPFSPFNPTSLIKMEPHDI

SPIB = SPIB (UniProt Q01892)
ELF4 = ELF4 (UniProt Q99607)
ETV2 = target: T2, ETV2 (UniProt O00321)
T2 sequence: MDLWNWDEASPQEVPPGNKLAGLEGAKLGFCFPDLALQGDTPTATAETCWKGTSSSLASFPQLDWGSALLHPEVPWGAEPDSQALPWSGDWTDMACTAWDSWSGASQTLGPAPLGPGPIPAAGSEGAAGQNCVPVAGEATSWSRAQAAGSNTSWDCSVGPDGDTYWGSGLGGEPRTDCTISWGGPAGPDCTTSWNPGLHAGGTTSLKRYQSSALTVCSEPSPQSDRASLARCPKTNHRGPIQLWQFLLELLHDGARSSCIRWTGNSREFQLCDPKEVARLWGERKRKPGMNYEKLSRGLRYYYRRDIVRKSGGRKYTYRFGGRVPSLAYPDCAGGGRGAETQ

ETV3L = target: T3, ETV3L (UniProt Q6ZN32)
T3 sequence: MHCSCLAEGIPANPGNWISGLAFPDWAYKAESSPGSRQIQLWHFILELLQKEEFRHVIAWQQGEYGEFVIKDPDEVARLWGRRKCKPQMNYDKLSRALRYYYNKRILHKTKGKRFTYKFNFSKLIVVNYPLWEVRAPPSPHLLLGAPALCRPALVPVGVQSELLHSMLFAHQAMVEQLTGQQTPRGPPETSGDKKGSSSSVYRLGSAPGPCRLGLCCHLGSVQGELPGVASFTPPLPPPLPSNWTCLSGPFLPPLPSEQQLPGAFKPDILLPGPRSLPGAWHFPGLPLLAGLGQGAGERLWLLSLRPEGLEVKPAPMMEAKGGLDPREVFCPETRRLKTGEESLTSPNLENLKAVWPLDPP

EHF = target: T4, EHF (UniProt Q9NZC4)
T4 sequence: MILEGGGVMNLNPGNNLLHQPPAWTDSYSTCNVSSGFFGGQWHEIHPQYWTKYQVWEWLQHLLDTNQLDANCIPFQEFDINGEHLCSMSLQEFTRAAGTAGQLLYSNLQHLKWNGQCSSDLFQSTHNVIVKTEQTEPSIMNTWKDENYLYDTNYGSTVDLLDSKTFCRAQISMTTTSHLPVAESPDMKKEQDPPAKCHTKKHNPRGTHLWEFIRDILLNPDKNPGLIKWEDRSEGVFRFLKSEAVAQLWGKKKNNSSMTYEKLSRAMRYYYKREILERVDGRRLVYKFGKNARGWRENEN

Sequence	binding signal (FLI1)	binding signal (SPIB)	binding signal (ELF4)	binding signal (ETV2)	binding signal (ETV3L)	binding signal (EHF)
GGCTAA	0.989	0.998	0.981	0.974	0.939	–
GCGAAA	0.952	0.965	0.962	0.898	0.945	0.931
GTCTAT	0.965	–	1.11	1	–	–
GAATTA	1.09	–	0.998	1.02	0.973	–
GGCAAT	0.997	0.973	0.958	0.849	0.948	0.944
ATTTAA	1.24	–	1.13	1.17	–	–
ATTGTC	1.17	–	1.08	1.14	1.14	–
GTACCA	0.962	–	0.999	0.94	0.991	0.98
CATTAT	1.19	–	1.21	1.05	–	–
TTTACC	1.28	–	1.24	1.3	–	–
TGGAAG	0.902	–	0.935	0.91	0.939	0.994
TGGAAC	0.948	–	0.955	0.993	0.981	1.04
AGCGTC	0.897	–	0.974	0.984	0.972	0.935
CAACTC	1.37	–	1.27	1.3	–	–
GGGAAA	0.982	1.1	0.992	0.999	1.05	–
CATAAG	0.923	0.887	0.951	0.882	0.93	0.946
CATAGT	0.986	0.993	0.996	0.973	0.952	0.982
CTGTAG	0.935	0.883	0.972	0.985	0.977	0.944
TAGTAG	0.971	–	0.995	0.968	0.951	0.983
CGGCAA	0.911	0.997	0.952	0.827	0.928	0.927
GTTACA	1.15	–	1.11	0.957	–	–
ATAGGC	0.946	–	0.959	0.98	–	–
GTTCCT	1.73	–	1.6	1.65	–	–
AGCGAT	0.994	–	0.99	0.936	–	–
TGGGAA	0.944	–	0.947	1.02	0.923	–
GTCCGG	0.922	0.962	0.79	0.811	0.942	0.935
CGACGG	0.916	0.959	0.952	0.976	0.982	0.983
CGGTTA	1.05	–	0.904	–	0.953	–

Random excerpt: 2 records from the list.
Sequence	binding signal (FLI1)	binding signal (SPIB)	binding signal (ELF4)	binding signal (ETV2)	binding signal (ETV3L)	binding signal (EHF)
ATTTAA	1.24	–	1.13	1.17	–	–
CAACTC	1.37	–	1.27	1.3	–	–

From paper PMC7862700
